According to patent US6869593B2, “Non-isotopic detection of osteoblastic activity in vivo using modified bisphosphonates” (Beth Israel Deaconess Medical Center, priority 2000, dated 2005):
Some of these results come from one statement about several compounds together. At least one compound was matched to its structure with a doubt left.

Assay: Serum concentration after intravenous injection (plasma elimination)
Conditions: 2.6 nmol intravenous, tail vein

For `CC1(C)C(/C=C/C2=C(Oc3ccc(CCC(=O)NCCC(O)(P(=O)([O-])O)P(=O)(O)O)cc3)C(=C\C=C3/N(CCCCS(=O)(=O)O)c4ccc(S(=O)(=O)O)cc4C3(C)C)/CCC2)=[N+](CCCCS(=O)(=O)O)c2ccc(S(=O)(=O)O)cc21` (stereo not shown) [Pam78], the “time to peak plasma concentration” value was ≤ 1 min.
